The results in this text go back to PMC10905880.

Results are given in words; binding and its absence hold for the method and conditions named. For some of these results: Binding calls can cover weak binding; strength is not graded here.

Common to all, as to assay: two-hybrid; OsCYCDs in pGBKT7 (BD), OsRBRs and OsCDKAs in pGADT7 (AD), co-transformed into AH109; growth on SD/-Ade/-His/-Trp/-Leu with 5 mM 3-AT, 30 C
For assay [1], the target named is OsCYCD1;1 (rice (Oryza sativa L. spp. japonica, Nipponbare)).
Assay [2] deals with OsCYCD1;2 (rice (Oryza sativa L. spp. japonica, Nipponbare)).
The target of assay [3] is OsCYCD2;1 (rice (Oryza sativa L. spp. japonica, Nipponbare)).
Assay [4] deals with OsCYCD2;2 (rice (Oryza sativa L. spp. japonica, Nipponbare)).
The target in assay [5] is OsCYCD2;3 (rice (Oryza sativa L. spp. japonica, Nipponbare)).
The target in assay [6] is OsCYCD3;1 (rice (Oryza sativa L. spp. japonica, Nipponbare)).
The target in assay [7] is OsCYCD3;2 (rice (Oryza sativa L. spp. japonica, Nipponbare)).
Assay [8] has as its target OsCYCD4;1 (rice (Oryza sativa L. spp. japonica, Nipponbare)).
Assay [9] addresses OsCYCD4;2 (rice (Oryza sativa L. spp. japonica, Nipponbare)).
In assay [10] the target is OsCYCD5;1 (rice (Oryza sativa L. spp. japonica, Nipponbare)).
The target of assay [11] is OsCYCD5;2 (rice (Oryza sativa L. spp. japonica, Nipponbare)).
In assay [12] the target is OsCYCD5;3 (rice (Oryza sativa L. spp. japonica, Nipponbare)).
The target in assay [13] is OsCYCD6;1 (rice (Oryza sativa L. spp. japonica, Nipponbare)).
Assay [14] addresses OsCYCD7;1 (rice (Oryza sativa L. spp. japonica, Nipponbare)).

B1: OsRBR2 (protein, UniProt Q2R374 1-978)
chain: MASQPPAAVEARLADLCKELGVDEGVAGEAAAVLEEGKGALLASPSFGSKSPEDAEKLCFAFVLYCVSKLKETKAGSSGVRLWEILKGCKLKYDDFFKESQRLASRIDQVLGSRYGSDWEARLELKQLENLVNLLADASRFYCKAFNELFLSPSTDQEPGSTTNIPDYIRFGWLLFLILRSKSPELFKDLVSCIHGLVAILAILLIHVPAKFRSFTIEGSSHLIKQTEKGVDLLPSLCHNYHTSEDRLKEMMGKSYKVIEVFFSRKAINASEFKTVNLDKIDTDGLMYFKDLVDDEIFQSNLEKLEKLSSTTGCQGELDLEMFLTSNDYVLNAENSSGSSANFGCSKRVFETLASPTKTIKNMLAAPSSPSSPANGGSIKIVQMTPVTSAMTTAKWLRDVISSLPDKPSSKLEEFLSSCDTDLTSDVVKRVSIILEAIFPTKSIDRGTSIGLNCANAFDIPWAEARKMEASKLYYRVLEAICRAESQNNNVNNLTPLLSNERFHRCLIACSAELVLATHKTVIMMFPAVLESTGLTAFDLSKIIENFVRHEETLPRELKRHLNSLEEQLLESMSWEKGSSLYNSLVVARPSLSTEINSLGLLAEPMPSLDGIVARQSIHPDGLPPTPSKRWPSAGPDGNCYPQSPKRLCTESRNSLVERNSQTPPPKQSQTGLSILKAKYHPLQATFASPTVSNPVSGNEKCAVVGVQIFFSKILKLAAIRIRNLCERLRHEELTVSVYNIFKQILDQQTALFFNRHVDQIILCCLYGVAKVSQLSLTFKEIVNNYKREPQCKPEVFRSIFVGSTNRNGGFGSRHVDIIVFYNQVFVPTVKPLLVALMPSSTRPEDKRNTNSQIPGSPKSSPFSNLPDMSPKKVSSSHNVYVSPLRQTKMDALLSPSSRSFYACIGESTQAFQSPSKDLAAINSRLNYPTRRINTRINFDMVSDSVVAGSLGQPNGGSASSDPAAAFSPLSKKSKTDS
For the molecule B1, the binding result in [1] is “binds”; in assay [2], “binds”; in [3] it was “binds”; in [4], “no binding”; in [5] it was “binds”; in [6] it was “binds”. The binding result in assay [7] was “binds”; in assay [8], “binds”; in assay [9], “no binding”; in assay [10], “binds”; in assay [11] it was “binds”; in assay [12], “binds”. In addition, the binding result in [13] and in assay [14] was “no binding” throughout.

B2: OsRBR1 (protein, UniProt Q84QM3 1-1010)
chain: MEGAAPPASSGSEVTGAGSGKVDAGGGAAMEERFADLCKSKLGLDESITRQAMQLFKESKSILLSSMSSLGSGSPEEIERFWSAFVLYCVSRLGKAGKGKEDGGISLCQILRAFSLNIVDFFKEMPQFCIKVGSVLAGLYGSDWEKRLELKELQANVVHLSLLSRYYKRAYQELFLLNDAKPPENSAEPNAQASDYYRFGWLLFLVLRIQTFSRFKDLVTSTNGLVSVLAVLIVHIPVRLRNFNIKESSSFAKKSDKGVNLIASLCEKYHTSEDELSKAIEKTNTLIVDILKKKPCPAASECQQDRLSFIDPEGLTYFKNLLEEDSLKLSLLMLEKEYENAINTKGELDERMFANDEDSLLGSGSLSGGAINLPGTKRKYDVMASPAKSITSPSPMSPPRFCASPTGNGYCSSKMAPITPVSTAMTTAKWLRSTISPLPSKPSGELLRFFSACDKDVTDDITRRAGIILGAIFTSSSFGERICTSVRSTNRIDAIWTEQRKMEALKLYYRVLESMCRAETQILSGNNLTSLLSNERFHRCMIACSAELVLATHKTVTMMFPAVLEKTGITAFDLSKVIESFVRHEDTLPRELKRHLNSLEERLLESMAWEKGSSMYNSLIVARPTLSAEINRLGLLAEPMPSLDAIAAHHNISLEGLPPLPFQKQEHSPDKDEVRSPKRACTERRNVLVDNNSFRSPVKDTLKSKLPPLQSAFLSPTRPNPAAGGELCAETGIGVFLSKIAKLAAIRIRGLCERLQLSQQVLERVYSLVQQIIIQQTALFFNRHIDQIILCSIYGVAKISQLALTFKEIIFGYRKQSQCKPQVFRSVYVHWASRSRNGKTGEDHVDIITFYNEVFIPTVKPLLVELGSGTSPNKKNEEKCAADGPYPESPRLSRFPNLPDMSPKKVSAAHNVYVSPLRTSKMDTLLSPSSKSYYACVGESTHAFQSPSKDLKVINNRLNSGKKVSGRLNFDVVSDLVVARSLSDQNSASAAATTADIATKTPVKLEQPDC
For the molecule B2, the binding entry in assay [1] was “binds”; in assay [2], “binds”; in assay [3], “no binding”; in [4] it was “binds”; in assay [5], “no binding”; in assay [6] it was “no binding”. Moreover, the binding result in [7] is “binds”; in [8] it was “no binding”; in assay [9] it was “no binding”; in assay [10] it was “binds”; in assay [11], “binds”; in assay [12] it was “binds”. The binding entry in [13] and in assay [14] was “no binding” each time.
